For one compound, Association constant (Ka) results are on record in BindingDB's records for doi:10.1021/jm049227l (Molecular Discovery, 2005).

Protein sequences, listed by entry. Tags and fused reporters are not part of them.
UniProt P02768, whole entry: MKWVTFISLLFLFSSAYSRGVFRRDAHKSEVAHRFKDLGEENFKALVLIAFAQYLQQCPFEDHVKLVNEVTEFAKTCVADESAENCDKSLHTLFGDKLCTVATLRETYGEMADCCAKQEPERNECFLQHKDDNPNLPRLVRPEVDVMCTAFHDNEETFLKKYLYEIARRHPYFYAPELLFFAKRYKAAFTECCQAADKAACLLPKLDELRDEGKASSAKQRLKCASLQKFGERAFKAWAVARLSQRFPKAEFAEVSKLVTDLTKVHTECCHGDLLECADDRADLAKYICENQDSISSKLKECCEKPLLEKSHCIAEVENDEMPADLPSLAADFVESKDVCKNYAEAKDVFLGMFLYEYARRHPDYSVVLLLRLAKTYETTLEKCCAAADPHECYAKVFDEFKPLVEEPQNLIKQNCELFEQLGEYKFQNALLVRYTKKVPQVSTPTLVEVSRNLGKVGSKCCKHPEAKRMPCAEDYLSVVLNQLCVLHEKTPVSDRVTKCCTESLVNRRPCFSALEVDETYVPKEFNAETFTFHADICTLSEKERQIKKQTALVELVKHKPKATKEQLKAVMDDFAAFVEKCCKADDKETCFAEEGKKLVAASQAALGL

For the experiment, the target named is Albumin (Homo sapiens, UniProt P02768). Description: Binding affinity towards human serum albumin.

Structures are written as SMILES.

As for `NS(=O)(=O)c1cc(C(=O)O)c(NCc2ccco2)cc1Cl` [4-chloro-2-[(furan-2-ylmethyl)amino]-5-sulfamoylbenzoic acid], the Association constant (Ka) came out at 138000 M⁻¹.
